The source of these data is the supplement of paper PMC10849652.

By UniProt entry, the sequences of proteins in these tests, tags left out. Where a name states a change or a piece, a line headed by the entry shows the natural chain unless it says otherwise.
UniProt Q9BVK8: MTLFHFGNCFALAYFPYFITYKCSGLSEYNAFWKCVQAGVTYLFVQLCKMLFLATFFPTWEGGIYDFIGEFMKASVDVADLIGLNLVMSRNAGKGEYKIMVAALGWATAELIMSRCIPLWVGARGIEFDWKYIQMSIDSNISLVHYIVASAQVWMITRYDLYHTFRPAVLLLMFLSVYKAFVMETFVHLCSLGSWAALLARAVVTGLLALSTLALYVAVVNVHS
UniProt Q9BRN9: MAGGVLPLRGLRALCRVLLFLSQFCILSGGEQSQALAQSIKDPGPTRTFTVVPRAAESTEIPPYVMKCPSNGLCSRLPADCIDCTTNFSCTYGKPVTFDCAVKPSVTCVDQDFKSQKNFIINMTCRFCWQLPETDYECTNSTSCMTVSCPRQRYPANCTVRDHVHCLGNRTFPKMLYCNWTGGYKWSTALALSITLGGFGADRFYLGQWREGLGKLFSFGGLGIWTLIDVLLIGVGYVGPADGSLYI
UniProt Q9BSA9: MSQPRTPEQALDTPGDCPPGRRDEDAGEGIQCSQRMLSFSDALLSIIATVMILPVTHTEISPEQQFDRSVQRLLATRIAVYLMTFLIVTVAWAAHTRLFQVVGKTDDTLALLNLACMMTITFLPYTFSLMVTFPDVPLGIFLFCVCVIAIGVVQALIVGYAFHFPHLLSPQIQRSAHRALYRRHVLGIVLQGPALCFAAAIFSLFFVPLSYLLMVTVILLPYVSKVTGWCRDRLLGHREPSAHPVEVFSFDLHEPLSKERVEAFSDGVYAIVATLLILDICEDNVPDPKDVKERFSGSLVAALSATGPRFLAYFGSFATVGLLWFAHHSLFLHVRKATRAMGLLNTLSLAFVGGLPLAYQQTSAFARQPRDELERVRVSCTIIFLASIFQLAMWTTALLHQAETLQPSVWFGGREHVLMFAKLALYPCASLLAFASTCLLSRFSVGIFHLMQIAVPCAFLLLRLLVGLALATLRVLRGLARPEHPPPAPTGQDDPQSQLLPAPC
UniProt Q96B96: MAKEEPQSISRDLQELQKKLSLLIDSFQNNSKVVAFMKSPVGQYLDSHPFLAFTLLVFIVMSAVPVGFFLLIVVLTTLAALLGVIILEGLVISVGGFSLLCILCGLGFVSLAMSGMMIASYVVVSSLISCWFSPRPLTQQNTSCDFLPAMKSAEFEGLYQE
UniProt Q96IK0: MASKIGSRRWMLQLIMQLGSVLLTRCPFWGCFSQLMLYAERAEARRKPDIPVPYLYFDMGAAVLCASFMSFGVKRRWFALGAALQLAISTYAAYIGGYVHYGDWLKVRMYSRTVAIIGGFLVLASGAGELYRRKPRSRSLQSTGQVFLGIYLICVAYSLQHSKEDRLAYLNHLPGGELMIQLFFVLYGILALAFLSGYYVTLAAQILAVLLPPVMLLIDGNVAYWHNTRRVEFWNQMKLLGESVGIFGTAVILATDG
UniProt Q04726: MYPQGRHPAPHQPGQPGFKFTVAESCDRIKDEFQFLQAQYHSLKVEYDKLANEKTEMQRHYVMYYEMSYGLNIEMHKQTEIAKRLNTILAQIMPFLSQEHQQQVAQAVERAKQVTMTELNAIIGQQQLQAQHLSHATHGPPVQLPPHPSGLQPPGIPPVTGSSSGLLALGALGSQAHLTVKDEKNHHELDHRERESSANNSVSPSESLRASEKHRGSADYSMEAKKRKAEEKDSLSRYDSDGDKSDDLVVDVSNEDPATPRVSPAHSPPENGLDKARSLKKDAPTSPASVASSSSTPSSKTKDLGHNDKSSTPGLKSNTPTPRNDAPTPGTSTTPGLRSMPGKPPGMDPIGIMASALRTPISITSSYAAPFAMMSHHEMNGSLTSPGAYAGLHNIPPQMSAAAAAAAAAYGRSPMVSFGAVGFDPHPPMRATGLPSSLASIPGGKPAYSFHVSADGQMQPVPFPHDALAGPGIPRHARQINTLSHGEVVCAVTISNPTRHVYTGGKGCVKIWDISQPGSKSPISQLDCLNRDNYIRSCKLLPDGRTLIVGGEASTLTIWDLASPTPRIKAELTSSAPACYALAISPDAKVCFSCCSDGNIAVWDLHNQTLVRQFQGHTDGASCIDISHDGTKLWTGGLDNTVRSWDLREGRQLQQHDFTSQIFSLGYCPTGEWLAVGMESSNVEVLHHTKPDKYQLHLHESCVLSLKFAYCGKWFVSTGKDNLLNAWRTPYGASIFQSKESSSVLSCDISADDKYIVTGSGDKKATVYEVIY
UniProt Q9NPI0: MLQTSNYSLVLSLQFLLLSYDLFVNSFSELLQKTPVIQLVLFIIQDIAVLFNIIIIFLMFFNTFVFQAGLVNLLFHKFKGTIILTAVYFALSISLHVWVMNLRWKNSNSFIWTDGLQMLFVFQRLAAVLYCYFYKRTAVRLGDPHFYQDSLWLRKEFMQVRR
UniProt Q96AN5: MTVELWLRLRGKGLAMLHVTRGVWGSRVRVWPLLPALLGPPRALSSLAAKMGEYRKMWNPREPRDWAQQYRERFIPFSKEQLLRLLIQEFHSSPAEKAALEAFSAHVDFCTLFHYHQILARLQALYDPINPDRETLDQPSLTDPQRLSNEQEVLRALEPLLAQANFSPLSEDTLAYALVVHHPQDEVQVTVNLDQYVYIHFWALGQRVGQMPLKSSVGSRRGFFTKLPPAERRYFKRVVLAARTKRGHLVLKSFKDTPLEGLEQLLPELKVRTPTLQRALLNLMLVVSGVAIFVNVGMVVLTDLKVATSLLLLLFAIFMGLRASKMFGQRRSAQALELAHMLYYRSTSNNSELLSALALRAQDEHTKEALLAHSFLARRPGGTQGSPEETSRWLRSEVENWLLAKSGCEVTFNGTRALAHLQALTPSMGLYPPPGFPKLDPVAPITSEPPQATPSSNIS
UniProt P07996: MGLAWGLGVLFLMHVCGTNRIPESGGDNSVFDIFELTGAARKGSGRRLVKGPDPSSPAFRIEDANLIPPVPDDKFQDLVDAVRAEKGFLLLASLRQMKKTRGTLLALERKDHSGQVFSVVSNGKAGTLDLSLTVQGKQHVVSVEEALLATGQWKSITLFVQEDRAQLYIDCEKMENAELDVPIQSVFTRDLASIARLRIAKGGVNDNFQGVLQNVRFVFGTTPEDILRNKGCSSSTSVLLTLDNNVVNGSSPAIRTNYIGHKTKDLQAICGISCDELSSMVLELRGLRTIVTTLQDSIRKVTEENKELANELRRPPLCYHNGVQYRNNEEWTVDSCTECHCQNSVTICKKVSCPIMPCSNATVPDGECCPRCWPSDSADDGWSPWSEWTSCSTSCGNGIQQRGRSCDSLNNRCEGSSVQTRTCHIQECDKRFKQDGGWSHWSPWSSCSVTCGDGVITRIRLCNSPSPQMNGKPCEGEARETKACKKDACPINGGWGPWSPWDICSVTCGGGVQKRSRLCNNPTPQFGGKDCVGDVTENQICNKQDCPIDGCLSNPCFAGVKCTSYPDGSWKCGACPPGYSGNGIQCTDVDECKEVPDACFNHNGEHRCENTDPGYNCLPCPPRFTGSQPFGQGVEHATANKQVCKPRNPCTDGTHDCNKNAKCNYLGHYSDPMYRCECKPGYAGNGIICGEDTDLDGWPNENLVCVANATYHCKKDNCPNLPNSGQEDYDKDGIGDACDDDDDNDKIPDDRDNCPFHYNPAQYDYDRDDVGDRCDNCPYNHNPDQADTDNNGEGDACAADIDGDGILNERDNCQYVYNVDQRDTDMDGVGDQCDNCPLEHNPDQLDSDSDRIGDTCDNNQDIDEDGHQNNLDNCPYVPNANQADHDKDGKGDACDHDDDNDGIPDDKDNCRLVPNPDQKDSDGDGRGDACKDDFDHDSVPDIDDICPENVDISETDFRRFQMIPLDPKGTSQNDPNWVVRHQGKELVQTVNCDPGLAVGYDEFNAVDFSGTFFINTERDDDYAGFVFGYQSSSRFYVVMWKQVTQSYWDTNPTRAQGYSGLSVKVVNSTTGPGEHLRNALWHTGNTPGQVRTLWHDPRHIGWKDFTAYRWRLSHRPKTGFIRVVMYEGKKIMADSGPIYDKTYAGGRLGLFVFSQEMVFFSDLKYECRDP
UniProt O94876, whole entry, looked up: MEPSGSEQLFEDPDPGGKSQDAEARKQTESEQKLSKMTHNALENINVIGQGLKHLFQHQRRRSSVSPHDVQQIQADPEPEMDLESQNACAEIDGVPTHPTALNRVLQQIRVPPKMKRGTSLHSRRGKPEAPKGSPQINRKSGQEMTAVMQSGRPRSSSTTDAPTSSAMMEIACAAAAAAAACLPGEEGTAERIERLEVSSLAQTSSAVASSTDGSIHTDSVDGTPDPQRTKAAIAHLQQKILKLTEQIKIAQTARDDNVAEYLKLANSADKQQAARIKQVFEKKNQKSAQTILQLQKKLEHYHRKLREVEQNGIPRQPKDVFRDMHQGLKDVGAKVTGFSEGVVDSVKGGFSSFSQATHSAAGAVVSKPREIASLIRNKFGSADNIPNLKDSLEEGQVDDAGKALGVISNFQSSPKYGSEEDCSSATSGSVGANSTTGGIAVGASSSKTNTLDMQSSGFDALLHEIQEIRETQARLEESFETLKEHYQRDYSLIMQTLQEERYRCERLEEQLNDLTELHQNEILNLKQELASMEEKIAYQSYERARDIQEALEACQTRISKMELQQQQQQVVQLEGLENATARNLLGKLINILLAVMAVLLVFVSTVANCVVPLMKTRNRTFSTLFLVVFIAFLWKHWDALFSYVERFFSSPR
UniProt Q8N9M5: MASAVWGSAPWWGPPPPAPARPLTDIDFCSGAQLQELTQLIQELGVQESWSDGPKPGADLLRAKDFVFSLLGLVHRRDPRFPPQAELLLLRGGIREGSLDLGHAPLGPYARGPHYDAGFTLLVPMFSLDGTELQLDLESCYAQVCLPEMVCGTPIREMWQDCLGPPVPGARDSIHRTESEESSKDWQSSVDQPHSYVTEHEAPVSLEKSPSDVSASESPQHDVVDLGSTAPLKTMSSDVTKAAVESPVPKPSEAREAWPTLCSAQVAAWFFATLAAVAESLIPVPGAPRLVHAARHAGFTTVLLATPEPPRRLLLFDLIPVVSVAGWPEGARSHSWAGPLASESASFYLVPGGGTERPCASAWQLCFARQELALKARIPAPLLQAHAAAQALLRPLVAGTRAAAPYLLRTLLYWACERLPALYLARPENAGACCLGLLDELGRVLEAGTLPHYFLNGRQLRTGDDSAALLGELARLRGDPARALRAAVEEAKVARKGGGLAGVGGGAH
UniProt Q8TDI8: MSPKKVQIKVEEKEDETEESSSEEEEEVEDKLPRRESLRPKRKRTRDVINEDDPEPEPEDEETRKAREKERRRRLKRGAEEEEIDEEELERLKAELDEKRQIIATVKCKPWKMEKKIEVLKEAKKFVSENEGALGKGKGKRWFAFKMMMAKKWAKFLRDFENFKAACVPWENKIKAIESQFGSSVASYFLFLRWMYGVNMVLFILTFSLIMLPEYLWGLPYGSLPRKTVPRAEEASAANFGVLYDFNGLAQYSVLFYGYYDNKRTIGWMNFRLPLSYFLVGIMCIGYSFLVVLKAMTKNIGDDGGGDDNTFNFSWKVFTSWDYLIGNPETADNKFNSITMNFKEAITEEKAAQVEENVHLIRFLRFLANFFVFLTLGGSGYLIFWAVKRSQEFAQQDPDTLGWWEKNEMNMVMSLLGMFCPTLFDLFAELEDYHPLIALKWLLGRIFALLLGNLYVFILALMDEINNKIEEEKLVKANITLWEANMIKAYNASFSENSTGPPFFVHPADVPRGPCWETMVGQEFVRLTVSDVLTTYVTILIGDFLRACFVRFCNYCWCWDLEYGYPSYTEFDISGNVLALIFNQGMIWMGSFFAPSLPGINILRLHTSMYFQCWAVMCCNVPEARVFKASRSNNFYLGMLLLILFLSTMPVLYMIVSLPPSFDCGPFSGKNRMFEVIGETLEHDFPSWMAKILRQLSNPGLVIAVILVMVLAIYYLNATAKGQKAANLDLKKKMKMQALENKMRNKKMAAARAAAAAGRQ
UniProt A0PK00: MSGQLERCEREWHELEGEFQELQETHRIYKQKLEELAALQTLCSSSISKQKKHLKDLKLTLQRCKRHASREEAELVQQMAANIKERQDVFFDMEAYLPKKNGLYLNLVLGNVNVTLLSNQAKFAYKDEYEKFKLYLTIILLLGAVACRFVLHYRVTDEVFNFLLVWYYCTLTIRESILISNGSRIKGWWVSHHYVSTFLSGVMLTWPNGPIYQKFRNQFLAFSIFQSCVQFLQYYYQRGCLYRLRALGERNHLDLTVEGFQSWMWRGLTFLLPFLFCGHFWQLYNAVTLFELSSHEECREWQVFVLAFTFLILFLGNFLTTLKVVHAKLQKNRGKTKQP
UniProt Q1AE95: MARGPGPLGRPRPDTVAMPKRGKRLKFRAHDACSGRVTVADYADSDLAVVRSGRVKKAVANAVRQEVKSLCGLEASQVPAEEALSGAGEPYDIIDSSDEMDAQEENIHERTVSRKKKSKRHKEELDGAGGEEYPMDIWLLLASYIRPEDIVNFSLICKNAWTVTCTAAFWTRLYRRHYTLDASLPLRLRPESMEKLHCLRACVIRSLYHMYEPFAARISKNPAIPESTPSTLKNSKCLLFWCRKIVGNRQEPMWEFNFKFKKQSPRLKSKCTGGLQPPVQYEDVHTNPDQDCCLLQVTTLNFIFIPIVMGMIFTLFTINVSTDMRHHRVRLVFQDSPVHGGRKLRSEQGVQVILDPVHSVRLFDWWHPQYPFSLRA

The other results are listed elsewhere or left out.

Compound in one assay: C1=CC=C(C=C1)[C@H](COC2=CC3=C(C=C2)NC(=O)N3)NC(=O)C4=CC=CN(C4=O)CC5=CC(=C(C=C5)F)F
Put plainly: log2 fold change, soluble protein after heating vs DMSO (PISA); higher = thermal stabilisation; K562 lysate, 10 uM; active = over 0.2 and 3.5 SD of the protein, either way, in both replicates (recomputed). In a few lines: (§1)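 Values give the log-two fold change in thermal stability against solvent controls, from duplicates. Crude K562 extract at 1 mg/mL protein, made by dounce homogenisation in PBS pH 7.4 with 1 mM MgCl2, was treated with 10 μM compound for 30 min. After 3 min heating across 48°C-58°C, aliquots were pooled, adjusted to 0.5% NP-40 at 4°C and centrifuged at 21,000xg for 90 min. The supernatant was measured by TMTpro 16plex LC-MS/MS with channel sums equalised.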
For the target TMEM147 (UniProt Q9BVK8), the log2 fold change was inactive: -0.097. Turning to TICAM1 (UniProt Q8IUC6), the log2 fold change is inactive: -0.204. As to TM2D3 (UniProt Q9BRN9), the log2 fold change is inactive: 0.023. In the case of TMEM175 (UniProt Q9BSA9), the log2 fold change was inactive: -0.034. As for TMED3 (UniProt Q9Y3Q3), the log2 fold change is inactive: 0.187.

TMEM159 isoform 2 (UniProt Q96B96): the log2 fold change was inactive: 0.008. With TMEM101 (UniProt Q96IK0), the log2 fold change was inactive: -0.122. As to TLNRD1 (UniProt Q9H1K6), the log2 fold change is inactive: -0.183. Take TMEM184C (UniProt Q9NVA4): the log2 fold change is inactive: 0.002. For the target TLE3 isoform 5 (UniProt Q04726), the log2 fold change was inactive: -0.061. Regarding THOC2 (UniProt H0Y7U4), the log2 fold change is inactive: 0.009.

Compound in a further assay: CC1=C(SC2=C1C(=N[C@H](C3=NN=C(N32)C)CC(=O)N)C4=CC=C(C=C4)Cl)C
The description is as above. In outline: as §1
In the case of TMEM147 (UniProt Q9BVK8), the log2 fold change is inactive: -0.008. As for TICAM1 (UniProt Q8IUC6), the log2 fold change was inactive: -0.036. On the same count and under the same terms, the figure for TM2D3 (UniProt Q9BRN9) is inactive: -0.003; for TMEM175 (UniProt Q9BSA9) it is inactive: -0.033. As to TMED3 (UniProt Q9Y3Q3), the log2 fold change is inactive: 0.252. As to TMEM159 isoform 2 (UniProt Q96B96), the log2 fold change was inactive: -0.042.

With TMEM101 (UniProt Q96IK0), the log2 fold change is inactive: 0.054. For TLNRD1 (UniProt Q9H1K6), the log2 fold change is inactive: 0.03. As for TMEM184C (UniProt Q9NVA4), the log2 fold change was inactive: 0.038.

With TLE3 isoform 5 (UniProt Q04726), the log2 fold change is active: -0.454.

For the target THOC2 (UniProt H0Y7U4), the log2 fold change was inactive: -0.143.

Compound in the next assay: CC1=C2C(=CC=C1)N=C(N(C2=O)C3=CC=CC=C3C)CN4C=NC5=C(N=CN=C54)N
Described as above. In a few lines:
as §1
For the target TMEM138 (UniProt Q9NPI0), the log2 fold change was inactive: 0.081. In the case of TMEM143 (UniProt Q96AN5), the log2 fold change is inactive: 0.219. Same read-out and setting: the figure for TIGAR (UniProt Q9NQ88) is inactive: -0.247.

On to TMC6 (UniProt Q7Z403), for which the log2 fold change is inactive: 0. As to THBS1 (UniProt P07996), the log2 fold change was inactive: -0.083. Consider TMCC1 (UniProt O94876), for which the log2 fold change is inactive: -0.107. Regarding TMEM102 (UniProt Q8N9M5), the log2 fold change is inactive: -0.002. Same read-out and setting: with TMC1 (UniProt Q8TDI8) the figure was inactive: 0.038; with TMEM120B (UniProt A0PK00), inactive: 0.112. On the same count and under the same terms, with TMEM183B (UniProt Q1AE95) the figure was inactive: -0.271.
